Results: the supplement of paper PMC11006884
Only a part is listed here, and it is no random draw.

Compound: COC(=O)C#Cc1ccccc1 [methyl 3-phenylpropiolate]
Assay: log2 ratio of iodoacetamide-alkyne labeling of the cysteine site, DMSO over compound (competition); higher = stronger covalent engagement of the cysteine by the compound, active = 1 or more
Settings: 500 µM; treatment time 1 h; system: HEK293T cell lysate
In short: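 After 1 h at ambient temperature with vehicle or electrophile (500 µM), HEK293T lysate (2 mg/mL) was labelled for 1 h with iodoacetamide alkyne and clicked to sCIP-TMT reagents. Pooled samples were trypsin-digested overnight at 37 °C, streptavidin-enriched, acid-eluted and analysed by Orbitrap Eclipse LC-MS/MS with FAIMS, then quantified in FragPipe over three replicates with duplicate channels. A cysteine's log2 competition ratio is its mean control-channel over mean compound-channel reporter intensity. Cysteines quantified in only one replicate were not included.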

Target	log2 ratio of iodoacetamide-alkyne labeling
EP400 C162 (UniProt Q96L91)	inactive: 0.339
PNKP C516 (UniProt Q96T60)	inactive: 0.166
SCYL1 C210 (UniProt Q96KG9)	inactive: -0.0672
MYBBP1A C890 (UniProt Q9BQG0)	inactive: 0.188
RSF1 C404 (UniProt Q96T23)	inactive: 0.512
ZNF830 C314 (UniProt Q96NB3)	inactive: 0.699
RANBP9 C719 (UniProt Q96S59)	inactive: 0.16
UniProt Q96MG7_C283	inactive: 0.0647
NSD1 C2508 (UniProt Q96L73)	inactive: 0.287
CLCC1 C550 (UniProt Q96S66)	inactive: 0.198
ZNF512 C324 (UniProt Q96ME7)	inactive: 0.191
ELAC2 C441 (UniProt Q9BQ52)	inactive: 0.346
UIMC1 C601 (UniProt Q96RL1)	inactive: 0.676
DOCK6 C1853 (UniProt Q96HP0)	inactive: 0.374
EP400 C694 (UniProt Q96L91)	inactive: 0.26
UniProt Q96NC0_C87	inactive: 0.134
UHRF1 C410 (UniProt Q96T88)	inactive: 0.266
VRK1 C220 (UniProt Q99986)	inactive: 0.151
STRBP C142 (UniProt Q96SI9)	inactive: 0.448

Target	log2 ratio of iodoacetamide-alkyne labeling
SECISBP2 C719 (UniProt Q96T21)	inactive: -0.258
FUBP3 C366 (UniProt Q96I24)	inactive: 0.24
MYBBP1A C338 (UniProt Q9BQG0)	inactive: 0.575
ACO2 C740 (UniProt Q99798)	inactive: 0.656
UniProt Q96JM3_C787	inactive: 0.141
UHRF1 C170 (UniProt Q96T88)	inactive: 0.462
FAM118B C93 (UniProt Q9BPY3)	inactive: 0.0168
CCT7 C29 (UniProt Q99832)	active: 1.51
CDC5L C769 (UniProt Q99459)	inactive: 0.143
MED15 C618 (UniProt Q96RN5)	inactive: 0.323
RSF1 C650 (UniProt Q96T23)	inactive: 0.578
IWS1 C749 (UniProt Q96ST2)	inactive: 0.712
ELAC2 C51 (UniProt Q9BQ52)	inactive: 0.178
CRBN C78 (UniProt Q96SW2)	inactive: 0.133
DOCK7 C1944 (UniProt Q96N67)	inactive: 0.121
MACROD1 C116 (UniProt Q9BQ69)	inactive: -0.00707
MTR C1153 (UniProt Q99707)	inactive: -0.209
STRBP C40 (UniProt Q96SI9)	inactive: 0.168
